According to patent EP0133795B1, “Gaba esters and gaba analogue esters” (THE McLEAN HOSPITAL CORPORATION, priority 1983, dated 1985):

Assays:
GABA "receptors" = assay: Inhibition of [3H]GABA binding to synaptic membranes from rat cerebellum; details: [3H]GABA (15 nM); synaptic membrane preparations from rat cerebellum
Description: Once such a compound enters the CNS, its pharmacological activity could be due to the properties of the intact molecule or to its capacity to release GABA after hydrolysis. To test for the possibility that the intact molecules might be active, the capacity of Compounds 5 and 6 to inhibit the binding of [^3H]GABA to GABA "receptors" using membrane preparations of rat cerebellum were measured. IC50 values were determined by fitting data to linearized transformations, based on including at least two concentrations of antagonists above and below the IC50, with at least triplicate replication per concentration.

CAI pyramidal cells = type: cell-based, Sprague-Dawley rats
Description: Transverse slices of hippocampus (350-375 µm thick) were prepared from Sprague-Dawley rats (200-300 g) and transferred onto a nylon net fixed over a 1.5 ml superfusion chamber. The slices were maintained at 32-33°C in a humidified atmosphere of 95%/5% 02/C02. The standard medium consisted of (in mM): NaCl, 125; KCI, 3.5; CaC12,2; MgS04, 1.5; NaH2PO4, 1; NaHC03, 24; and glucose, 10. Low chloride medium was prepared by substituting sodium isethionate for sodium chloride.
Extracellular potentials were recorded with NaCI-fitted micropipettes, and stimulus pulses were applied through bipolar platinum wire electrodes. The various drugs were dissolved in fresh medium (without glucose and phosphate) and applied to the surface of the tissue by pressure ejection from a micropipette, Sakai, Swartz and Woody, (1979).
The inhibitory effectiveness of various compounds was investigated by measuring their ability to suppress the extracellular population spike recorded from the hippocampal CAI pyramidal layer and elicited by stimulation of stratum radiatum axons. The amplitude of this monosynaptic population spike is essentially proportional to the number of pyramidal cells discharging in response to a stimulus volley, Andersen, Bliss and Skrede, (1971).
The various compounds were applied as droplets to the pyramidal layer approximately 75 µm from the recording electrode. […]

[1] = test system: general motor activity of mice; assay: General locomotor activity of mice (Stoelting electronic activity monitor); type: in vivo, Balb/c mice; details: graded 0-5
Description: The effect of intraperitoneal (i.p.) injections of test compounds on the general motor activity of mice during a 60-min period was determined in a Stoelting electronic activity monitor. Dose-response curves were obtained from which the half-maximally effective values were calculated and the results are shown in Table V.
The compounds were dissolved in 25% (vols.) propylene glycol in water and injected i.p. into Balb/c mice (18-24 g). Dose-response measurements were obtained for 6 animals per dose or time point. Activity was monitored for 60 min using a Stoelting Electronic Activity Monitor (EAM) apparatus to assess the general motor activity of the animals.
The general locomotor activity of mice was measured in the Stolting activity monitor apparatus during 60 min after an intraperitoneal (i.p.) injection of a test compound.

## NCCCC(=O)O [GABA, gamma-aminobutyric acid]
GABA "receptors"
  IC50: 70 nM
CAI pyramidal cells
  inhibition of the evoked population spike: rapid, dose-dependent inhibition
[1]
  In Vivo Inhibition of General Motor Activity: 0
